From the supplement of paper PMC8728848
This is one part of the list.

How the values were obtained:
Assay in all cases: glycan array binding signal (z-score within array); higher = stronger binding
Settings in all cases: glycan notation: IUPAC condensed, linker removed
Neu5Ac(a2-3)Gal = biological target: Neu5Ac(a2-3)Gal
Method in brief: (§1)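 Glycan array binding is given as a within-array Z-score, which can be read as non-binding when negative. The arrays, 3228 of them, came from the Consortium for Functional Glycomics database and were retained only where the protein sequence was available. Z-scores were averaged across arrays of the same protein sequence at different concentrations or buffers and across linkers.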

[1] = biological target: Neu5Ac(a2-3)Gal(b1-3)GalNAc
Method in brief: as §1

[2] = biological target: Neu5Ac(a2-3)Gal(b1-3)GalNAc(b1-3)Gal(a1-4)Gal(b1-4)Glc
Method in brief: as §1

[3] = biological target: Neu5Ac(a2-3)Gal(b1-3)GalNAc(b1-4)[Neu5Ac(a2-3)]Gal(b1-4)Glc
Method in brief: as §1

[4] = biological target: Neu5Ac(a2-3)Gal(b1-3)GalNAc(b1-4)[Neu5Ac(a2-8)Neu5Ac(a2-3)]Gal(b1-4)Glc
Method in brief: as §1

[5] = biological target: Neu5Ac(a2-3)Gal(b1-3)GalNAc6S
Method in brief: as §1

[6] = biological target: Neu5Ac(a2-3)Gal(b1-3)GlcNAc
Method in brief: as §1

[7] = biological target: Neu5Ac(a2-3)Gal(b1-3)GlcNAc(b1-2)Man
Method in brief: as §1

[8] = biological target: Neu5Ac(a2-3)Gal(b1-3)GlcNAc(b1-2)Man(a1-3)[GlcNAc(b1-4)][Neu5Ac(a2-3)Gal(b1-3)GlcNAc(b1-2)Man(a1-6)]Man(b1-4)GlcNAc(b1-4)GlcNAc
Method in brief: as §1

[9] = biological target: Neu5Ac(a2-3)Gal(b1-3)GlcNAc(b1-2)Man(a1-3)[Neu5Ac(a2-3)Gal(b1-3)GlcNAc(b1-2)Man(a1-6)]Man(b1-4)GlcNAc(b1-4)GlcNAc
Method in brief: as §1

[10] = biological target: Neu5Ac(a2-3)Gal(b1-3)GlcNAc(b1-3)Gal(b1-3)GlcNAc
Method in brief: as §1

[11] = biological target: Neu5Ac(a2-3)Gal(b1-3)GlcNAc(b1-3)Gal(b1-4)GlcNAc
Method in brief: as §1

[12] = biological target: Neu5Ac(a2-3)Gal(b1-3)GlcNAc(b1-3)GalNAc
Method in brief: as §1

[13] = biological target: Neu5Ac(a2-3)Gal(b1-3)GlcNAc(b1-4)Gal(b1-4)Glc
Method in brief: as §1

[14] = biological target: Neu5Ac(a2-3)Gal(b1-3)GlcNAc(b1-6)GalNAc
Method in brief: as §1

[15] = biological target: Neu5Ac(a2-3)Gal(b1-3)GlcNAc6S
Method in brief: as §1

[16] = biological target: Neu5Ac(a2-3)Gal(b1-3)[Fuc(a1-4)]GlcNAc
Method in brief: as §1

[17] = biological target: Neu5Ac(a2-3)Gal(b1-3)[Fuc(a1-4)]GlcNAc(b1-3)Gal(b1-3)[Fuc(a1-4)]GlcNAc
Method in brief: as §1

[18] = biological target: Neu5Ac(a2-3)Gal(b1-3)[Fuc(a1-4)]GlcNAc(b1-3)Gal(b1-4)[Fuc(a1-3)]GlcNAc
Method in brief: as §1

[19] = biological target: Neu5Ac(a2-3)Gal(b1-3)[GlcNAc(b1-6)]GalNAc
Method in brief: as §1

[20] = biological target: Neu5Ac(a2-3)Gal(b1-3)[Neu5Ac(a2-6)]GalNAc
Method in brief: as §1

[21] = biological target: Neu5Ac(a2-3)Gal(b1-3)[Neu5Ac(a2-6)]GlcNAc(b1-3)[Fuc(a1-3)[Gal(b1-4)]GlcNAc(b1-6)]Gal(b1-4)Glc
Method in brief: as §1

[22] = biological target: Neu5Ac(a2-3)Gal(b1-3)]Neu5Ac(a2-3)Gal(b1-4)]GlcNAc
Method in brief: as §1

Neu5Ac(a2-3)Gal(b1-4)Glc = biological target: Neu5Ac(a2-3)Gal(b1-4)Glc
Method in brief: as §1

[23] = biological target: Neu5Ac(a2-3)Gal(b1-4)GlcNAc
Method in brief: as §1

[24] = biological target: Neu5Ac(a2-3)Gal(b1-4)GlcNAc(b1-2)Man
Method in brief: as §1

[25] = biological target: Neu5Ac(a2-3)Gal(b1-4)GlcNAc(b1-2)Man(a1-3)[GlcNAc(b1-4)][Neu5Ac(a2-3)Gal(b1-4)GlcNAc(b1-2)Man(a1-6)]Man(b1-4)GlcNAc(b1-4)GlcNAc
Method in brief: as §1

[26] = biological target: Neu5Ac(a2-3)Gal(b1-4)GlcNAc(b1-2)Man(a1-3)[Neu5Ac(a2-3)Gal(b1-4)GlcNAc(b1-2)Man(a1-6)]Man(b1-4)GlcNAc(b1-4)GlcNAc
Method in brief: as §1

[27] = biological target: Neu5Ac(a2-3)Gal(b1-4)GlcNAc(b1-2)Man(a1-3)[Neu5Ac(a2-3)Gal(b1-4)GlcNAc(b1-2)Man(a1-6)]Man(b1-4)GlcNAc(b1-4)[Fuc(a1-6)]GlcNAc
Method in brief: as §1

[28] = biological target: Neu5Ac(a2-3)Gal(b1-4)GlcNAc(b1-2)Man(a1-3)[Neu5Ac(a2-6)Gal(b1-4)GlcNAc(b1-2)Man(a1-6)]Man(b1-4)GlcNAc(b1-4)GlcNAc
Method in brief: as §1

[29] = biological target: Neu5Ac(a2-3)Gal(b1-4)GlcNAc(b1-2)[Neu5Ac(a2-3)Gal(b1-4)GlcNAc(b1-4)]Man(a1-3)[GlcNAc(b1-4)][Neu5Ac(a2-3)Gal(b1-4)GlcNAc(b1-2)[Neu5Ac(a2-3)Gal(b1-4)GlcNAc(b1-6)]Man(a1-6)]Man(b1-4)GlcNAc(b1-4)GlcNAc
Method in brief: as §1

[30] = biological target: Neu5Ac(a2-3)Gal(b1-4)GlcNAc(b1-2)[Neu5Ac(a2-3)Gal(b1-4)GlcNAc(b1-4)]Man(a1-3)[GlcNAc(b1-4)][Neu5Ac(a2-3)Gal(b1-4)GlcNAc(b1-4)Man(a1-6)]Man(b1-4)GlcNAc(b1-4)GlcNAc
Method in brief: as §1

[31] = biological target: Neu5Ac(a2-3)Gal(b1-4)GlcNAc(b1-2)[Neu5Ac(a2-3)Gal(b1-4)GlcNAc(b1-6)]Man(a1-6)[Neu5Ac(a2-3)Gal(b1-4)GlcNAc(b1-2)Man(a1-3)]Man(b1-4)GlcNAc(b1-4)GlcNAc
Method in brief: as §1

[32] = biological target: Neu5Ac(a2-3)Gal(b1-4)GlcNAc(b1-2)[Neu5Ac(a2-3)Gal(b1-4)GlcNAc(b1-6)]Man(a1-6)[Neu5Ac(a2-3)Gal(b1-4)GlcNAc(b1-2)Man(a1-3)][GlcNAc(b1-4)]Man(b1-4)GlcNAc(b1-4)GlcNAc
Method in brief: as §1

[33] = biological target: Neu5Ac(a2-3)Gal(b1-4)GlcNAc(b1-3)Gal
Method in brief: as §1

[34] = biological target: Neu5Ac(a2-3)Gal(b1-4)GlcNAc(b1-3)Gal(b1-3)GlcNAc
Method in brief: as §1

[35] = biological target: Neu5Ac(a2-3)Gal(b1-4)GlcNAc(b1-3)Gal(b1-4)GlcNAc
Method in brief: as §1

[36] = biological target: Neu5Ac(a2-3)Gal(b1-4)GlcNAc(b1-3)Gal(b1-4)GlcNAc(b1-2)Man(a1-3)[Neu5Ac(a2-3)Gal(b1-4)GlcNAc(b1-3)Gal(b1-4)GlcNAc(b1-2)Man(a1-6)]Man(b1-4)GlcNAc(b1-4)GlcNAc
Method in brief: as §1

[37] = biological target: Neu5Ac(a2-3)Gal(b1-4)GlcNAc(b1-3)Gal(b1-4)GlcNAc(b1-3)Gal(b1-4)GlcNAc
Method in brief: as §1

[38] = biological target: Neu5Ac(a2-3)Gal(b1-4)GlcNAc(b1-3)Gal(b1-4)GlcNAc(b1-3)Gal(b1-4)GlcNAc(b1-2)Man(a1-3)[Neu5Ac(a2-3)Gal(b1-4)GlcNAc(b1-3)Gal(b1-4)GlcNAc(b1-3)Gal(b1-4)GlcNAc(b1-2)Man(a1-6)]GalNAc
Method in brief: as §1

[39] = biological target: Neu5Ac(a2-3)Gal(b1-4)GlcNAc(b1-3)Gal(b1-4)GlcNAc(b1-3)GalNAc
Method in brief: as §1

[40] = biological target: Neu5Ac(a2-3)Gal(b1-4)GlcNAc(b1-3)Gal(b1-4)GlcNAc(b1-3)[Neu5Ac(a2-3)Gal(b1-4)GlcNAc(b1-3)Gal(b1-4)GlcNAc(b1-6)]GalNAc
Method in brief: as §1

[41] = biological target: Neu5Ac(a2-3)Gal(b1-4)GlcNAc(b1-3)Gal(b1-4)GlcNAc(b1-6)[Gal(b1-3)]GalNAc
Method in brief: as §1

[42] = biological target: Neu5Ac(a2-3)Gal(b1-4)GlcNAc(b1-3)Gal(b1-4)[Fuc(a1-3)]GlcNAc
Method in brief: as §1

[43] = biological target: Neu5Ac(a2-3)Gal(b1-4)GlcNAc(b1-3)GalNAc
Method in brief: as §1

B1: Ovorubin (Pomacea canaliculata), J7I2T6 (protein)
chain: MFVATSLLLAIATLVVRASPHNYLIMDIEPPKSVSERDILNLLSPLQVKHSFRVTGSTRLLIVIRLDAQSYEKLDEITVPGKVEVIPAVNMADTMERCGVSWPRVELTDDNVTLFESESTLTDVTKEQLKAMLIGYGEHMSGLLQAHRFEYYQAAGATPHRHFVFVNSVPDEIEVFGREGVDIWGGPGEFVVKPQYVTRI
Q: Which results are given for B1?
A: glycan array binding signal (z-score) (Neu5Ac(a2-3)Gal): -0.761; glycan array binding signal (z-score) [1]: -0.752; glycan array binding signal (z-score) [2]: 1.31; glycan array binding signal (z-score) [3]: 0.78; glycan array binding signal (z-score) [4]: -0.294; glycan array binding signal (z-score) [5]: -0.28; glycan array binding signal (z-score) [6]: 0.759; glycan array binding signal (z-score) [7]: 0.619; glycan array binding signal (z-score) [8]: -0.978; glycan array binding signal (z-score) [9]: 0.486; glycan array binding signal (z-score) [10]: -0.712; glycan array binding signal (z-score) [11]: -0.697; glycan array binding signal (z-score) [12]: 0.142; glycan array binding signal (z-score) [13]: -0.65; glycan array binding signal (z-score) [14]: -0.145; glycan array binding signal (z-score) [15]: 0.718; glycan array binding signal (z-score) [16]: -0.148; glycan array binding signal (z-score) [17]: 0.722; glycan array binding signal (z-score) [18]: -0.697; glycan array binding signal (z-score) [19]: 0.518; glycan array binding signal (z-score) [20]: -0.417; glycan array binding signal (z-score) [21]: -0.335; glycan array binding signal (z-score) [22]: -0.934; glycan array binding signal (z-score) (Neu5Ac(a2-3)Gal(b1-4)Glc): 0.013; glycan array binding signal (z-score) [23]: -0.593; glycan array binding signal (z-score) [24]: 1.09; glycan array binding signal (z-score) [25]: -0.644; glycan array binding signal (z-score) [26]: -0.45; glycan array binding signal (z-score) [27]: -0.708; glycan array binding signal (z-score) [28]: -1.01; glycan array binding signal (z-score) [29]: -0.44; glycan array binding signal (z-score) [30]: -0.397; glycan array binding signal (z-score) [31]: 0.215; glycan array binding signal (z-score) [32]: -0.37; glycan array binding signal (z-score) [33]: -0.653; glycan array binding signal (z-score) [34]: -1.19; glycan array binding signal (z-score) [35]: -0.012; glycan array binding signal (z-score) [36]: -0.209; glycan array binding signal (z-score) [37]: 1.03; glycan array binding signal (z-score) [38]: 1.01; glycan array binding signal (z-score) [39]: 0.207; glycan array binding signal (z-score) [40]: -0.594; glycan array binding signal (z-score) [41]: -0.868; glycan array binding signal (z-score) [42]: 0.945; glycan array binding signal (z-score) [43]: 0.259
